The values that follow come from PMC8730435.

Amino acid sequences for entries named in this document (tags omitted). Residues count along the entry.
AR-DBD-LBD (androgen receptor residues 554-919) (P10275, residues 554-919): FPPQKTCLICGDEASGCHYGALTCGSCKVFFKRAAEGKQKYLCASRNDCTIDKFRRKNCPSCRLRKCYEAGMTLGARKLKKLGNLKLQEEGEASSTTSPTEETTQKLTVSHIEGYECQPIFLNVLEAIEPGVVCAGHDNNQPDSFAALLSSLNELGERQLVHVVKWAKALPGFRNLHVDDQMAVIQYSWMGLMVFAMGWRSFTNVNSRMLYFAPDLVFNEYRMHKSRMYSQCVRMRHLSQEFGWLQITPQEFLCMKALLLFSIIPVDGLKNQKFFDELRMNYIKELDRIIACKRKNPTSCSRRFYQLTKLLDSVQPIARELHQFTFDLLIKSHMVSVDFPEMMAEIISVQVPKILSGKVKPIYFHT
AR-LBD (androgen receptor ligand-binding domain, residues 663-919) (P10275, residues 663-919): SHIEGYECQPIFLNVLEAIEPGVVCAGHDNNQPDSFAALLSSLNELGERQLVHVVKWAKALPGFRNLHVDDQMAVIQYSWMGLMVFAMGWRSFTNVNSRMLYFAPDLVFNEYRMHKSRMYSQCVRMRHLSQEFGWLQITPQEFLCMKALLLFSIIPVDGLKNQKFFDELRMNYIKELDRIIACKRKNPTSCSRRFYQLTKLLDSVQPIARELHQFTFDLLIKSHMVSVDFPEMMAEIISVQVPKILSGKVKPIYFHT

Assay [1] deals with T1, KDM4A catalytic domain (residues 1-350) (human) (UniProt O75164).
T1 sequence: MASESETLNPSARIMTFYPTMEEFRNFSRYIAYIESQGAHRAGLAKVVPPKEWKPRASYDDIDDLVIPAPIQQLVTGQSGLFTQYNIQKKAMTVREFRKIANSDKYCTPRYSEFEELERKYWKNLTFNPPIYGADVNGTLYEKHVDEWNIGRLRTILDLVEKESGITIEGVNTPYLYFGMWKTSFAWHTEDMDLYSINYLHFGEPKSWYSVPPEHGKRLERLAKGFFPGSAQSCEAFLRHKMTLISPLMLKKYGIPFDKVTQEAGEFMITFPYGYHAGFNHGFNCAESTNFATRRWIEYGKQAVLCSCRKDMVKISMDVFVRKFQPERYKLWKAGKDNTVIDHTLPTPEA
Kind of assay: NMR titration; 1H-15N TROSY-HSQC of 15N-KDM4A(1-350) or 15N-KDM4B(1-348), 40-50 uM, alone or with equimolar unlabelled AR fragment; 25 C; 25 mM Tris pH 7.4, 125 mM NaCl, 1 mM TCEP, 5% D2O; 1 uM DHT with AR-LBD or AR-DBD-LBD; both purified.

Assay [2] concerns the target AR-LBD (androgen receptor ligand-binding domain, residues 663-919) (human) (UniProt P10275). Description: NMR titration; 1H-15N TROSY-HSQC of 15N-AR-LBD bound to DHT, 40-50 uM, alone or with equimolar unlabelled KDM4A fragment; 25 C; 25 mM Tris pH 7.4, 125 mM NaCl, 0.1% octyl beta-D-glucopyranoside, 1 mM TCEP, 5% D2O, 1 uM DHT; both purified.

These are yes or no findings as the source states them, for the method shown. Some binding calls cover weakened binding; strength is not graded here.

For “AR-DBD-LBD (androgen receptor residues 554-919) (from UniProt P10275 554-919) (domain or fragment)”, the binding result in assay [1] is “no binding (tested: 40-50 uM of each, equimolar)”.

For the molecule “AR-LBD (androgen receptor ligand-binding domain, residues 663-919) (from UniProt P10275 663-919) (domain or fragment)”, the binding result in assay [1] is recorded as “no binding (tested: 40-50 uM of each, equimolar)”.

B1: KDM4A central region (residues 301-708) (domain or fragment, UniProt O75164 301-708)
chain: KQAVLCSCRKDMVKISMDVFVRKFQPERYKLWKAGKDNTVIDHTLPTPEAAEFLKESELPPRAGNEEECPEEDMEGVEDGEEGDLKTSLAKHRIGTKRHRVCLEIPQEVSQSELFPKEDLSSEQYEMTECPAALAPVRPTHSSVRQVEDGLTFPDYSDSTEVKFEELKNVKLEEEDEEEEQAAAALDLSVNPASVGGRLVFSGSKKKSSSSLGSGSSRDSISSDSETSEPLSCRAQGQTGVLTVHSYAKGDGRVTVGEPCTRKKGSAARSFSERELAEVADEYMFSLEENKKSKGRRQPLSKLPRHHPLVLQECVSDDETSEQLTPEEEAEETEAWAKPLSQLWQNRPPNFEAEKEFNETMAQQAPHCAVCMIFQTYHQVEFGGFNQNCGNASDLAPQKQRTKPLIPE
Take B1: the binding entry in assay [2] is recorded as “binds weakly”.
